Assay results published in publication PMC12327844.
Results are given in words; binding and its absence hold for the method and conditions named. Binding calls can cover weak binding; strength is not graded here.

The chains behind the UniProt entries cited, without tags or fusion partners. Where a name states a change or a piece, a line headed by the entry shows the natural chain unless it says otherwise.
UniProt A4IMB4: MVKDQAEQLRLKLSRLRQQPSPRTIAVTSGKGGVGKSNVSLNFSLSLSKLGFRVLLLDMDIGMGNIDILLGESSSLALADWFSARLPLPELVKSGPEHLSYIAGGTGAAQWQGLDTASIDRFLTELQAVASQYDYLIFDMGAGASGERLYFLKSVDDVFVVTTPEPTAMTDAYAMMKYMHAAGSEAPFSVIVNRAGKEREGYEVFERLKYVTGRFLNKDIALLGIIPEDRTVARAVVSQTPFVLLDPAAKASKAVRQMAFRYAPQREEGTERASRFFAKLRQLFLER

Experiments:
[1] = molecular target: GtFlhG (Geobacillus thermodenitrificans NG80-2) (UniProt A4IMB4); test: pull-down; GST pulldown with 2 mM ATP; 1 nmol GST-tagged bait on glutathione agarose beads, 10 nmol prey; SEC buffer, room temperature; Coomassie-stained SDS-PAGE; both purified
[2] = molecular target: GST-tagged GtFlhG (Geobacillus thermodenitrificans NG80-2) (UniProt A4IMB4); test: pull-down; competition pulldown: GST-GtFlhG as bait, GtGpsB and GtFliY as prey, GtFliY in increasing amounts (1, 5 and 10 nmol), 2 mM ATP; SDS-PAGE and Western blot with a 6x-His tag-specific antibody (Figure S11b); both purified
[3] = molecular target: GST-tagged GtFlhG (Geobacillus thermodenitrificans NG80-2) (UniProt A4IMB4); test: pull-down; GST pulldown, nucleotide not stated for these panels (Figure S6, Figure 3b); GST-tagged bait on glutathione agarose beads; SEC buffer, room temperature; Coomassie-stained SDS-PAGE; both purified
[4] = molecular target: GST-tagged GtFlhG (Geobacillus thermodenitrificans NG80-2) (UniProt A4IMB4); test: pull-down; GST pulldown with 2 mM ATP; 1 nmol GST-tagged bait on glutathione agarose beads, 10 nmol prey; SEC buffer, room temperature; Coomassie-stained SDS-PAGE; both purified
[5] = molecular target: GST-tagged GtFlhG (Geobacillus thermodenitrificans NG80-2) (UniProt A4IMB4); test: pull-down; GST pulldown with 2 mM ADP; 1 nmol GST-tagged bait on glutathione agarose beads, 10 nmol prey; SEC buffer, room temperature; Coomassie-stained SDS-PAGE; both purified

| binding [1] | binding [2] | binding [3] | binding [4] | binding [5] | Binder |
| --- | --- | --- | --- | --- | --- |
| binds | binds | – | – | – | GtFliY (protein, UniProt A0ABY9QFT0 1-394) MMNDGMLSQDEIDALLRGMDDSDHVPALHDIFTPLEQDAIGEIGNISFGSSATALSTLLNQKVEITTPSVSVVERKRVADEFPRPYVAIQVNYTEGFLGTNLLVIEQQDAAVIADLMLGGDGTTADSSLGEIQLSAVQEAMNQMMGSAATSMSTIFNKRVDISPPTLHLLDLTEGKGLEYLPDEDFFIKVSFRLKIGALVDSNIMQLLPIDFAKELVTHLLGSSAEAAGTLEKEENIDPSSAGAVPREELQPAPAYAHASDGEFSSAASRFTNEPVGGRSKEEESVAERHIQAADFAEFDDPPLAATEARNLELLFDVPLQVTVELGRTKRSVQEILQLSAGSIIELDKLAGEPVDIFVNNKLIAKGEVVVIDENFGVRITDIVSQNDRLKRLK |
| binds | binds | binds | binds | binds weakly | GtGpsB (protein, UniProt A4IN56 1-98) MSANQVKLTPKDILEKEFKVSMRGYNQDEVDQFLDIVIKDYEAFQQELDELRQENARLKRQVEELQKRPTTPTGTTNYDILQRLSNLEKHVFGRKLYE |
